Assay results from PMC10907721.
For at least one entry, the source does not settle the construct or the ends of the probe. Tags and fusion partners may be left off the protein sequences shown.

Target: T1, Hop1 CBR WT (Saccharomyces cerevisiae) (UniProt P20050)
T1 sequence (looked up): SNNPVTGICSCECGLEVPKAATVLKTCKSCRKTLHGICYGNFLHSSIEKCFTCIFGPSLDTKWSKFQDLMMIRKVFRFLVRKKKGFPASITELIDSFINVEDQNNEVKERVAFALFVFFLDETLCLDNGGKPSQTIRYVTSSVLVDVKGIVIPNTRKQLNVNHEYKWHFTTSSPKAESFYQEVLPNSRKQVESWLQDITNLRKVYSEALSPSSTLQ
Test: EMSA
Details: EMSA: 20 mM Tris-HCl pH 7.5, 25 mM NaCl, 2 mM beta-mercaptoethanol, 10% glycerol; 50 nM nucleosome or DNA; 15 min room temperature; 6% TBE-acrylamide gel, 0.2X TBE, 4 C; recombinant protein; residues 322-537

GAGGCCGCTCAATTGGTCGTAGACAGCTCTAGCACCG (double strand) [40-bp DNA from Widom 601]
Kd: 2100 nM
